We go through one substance from publication PMC9768165.

By UniProt entry, the sequences of proteins in these tests, tags left out. Where a name states a change or a piece, a line headed by the entry shows the natural chain unless it says otherwise. Chains listed by the source or under a name are the forms on record and can include a tag or linker.
UniProt P35222: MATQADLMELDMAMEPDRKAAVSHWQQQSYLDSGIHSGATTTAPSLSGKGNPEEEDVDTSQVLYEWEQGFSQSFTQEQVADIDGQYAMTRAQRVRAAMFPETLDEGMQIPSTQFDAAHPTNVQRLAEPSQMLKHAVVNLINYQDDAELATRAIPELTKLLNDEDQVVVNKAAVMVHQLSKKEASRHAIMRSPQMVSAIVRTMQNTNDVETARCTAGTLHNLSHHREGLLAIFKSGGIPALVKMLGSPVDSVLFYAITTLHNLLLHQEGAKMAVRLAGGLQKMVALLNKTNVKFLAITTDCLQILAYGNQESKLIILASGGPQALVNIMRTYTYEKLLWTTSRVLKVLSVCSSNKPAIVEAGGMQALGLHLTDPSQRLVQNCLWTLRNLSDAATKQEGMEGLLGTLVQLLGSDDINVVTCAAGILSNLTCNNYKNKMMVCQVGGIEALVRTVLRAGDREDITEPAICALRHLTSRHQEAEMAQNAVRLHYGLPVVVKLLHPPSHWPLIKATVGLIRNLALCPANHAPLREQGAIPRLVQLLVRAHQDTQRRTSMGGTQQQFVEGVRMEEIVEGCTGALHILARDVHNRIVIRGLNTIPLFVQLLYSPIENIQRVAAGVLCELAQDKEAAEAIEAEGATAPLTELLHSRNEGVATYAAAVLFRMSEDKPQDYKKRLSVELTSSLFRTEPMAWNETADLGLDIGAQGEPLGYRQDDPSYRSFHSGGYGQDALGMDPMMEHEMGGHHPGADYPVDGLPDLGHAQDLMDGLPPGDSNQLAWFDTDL
β-catenin-4A mutant (S33/S37/T41/S45) (P35222, form named): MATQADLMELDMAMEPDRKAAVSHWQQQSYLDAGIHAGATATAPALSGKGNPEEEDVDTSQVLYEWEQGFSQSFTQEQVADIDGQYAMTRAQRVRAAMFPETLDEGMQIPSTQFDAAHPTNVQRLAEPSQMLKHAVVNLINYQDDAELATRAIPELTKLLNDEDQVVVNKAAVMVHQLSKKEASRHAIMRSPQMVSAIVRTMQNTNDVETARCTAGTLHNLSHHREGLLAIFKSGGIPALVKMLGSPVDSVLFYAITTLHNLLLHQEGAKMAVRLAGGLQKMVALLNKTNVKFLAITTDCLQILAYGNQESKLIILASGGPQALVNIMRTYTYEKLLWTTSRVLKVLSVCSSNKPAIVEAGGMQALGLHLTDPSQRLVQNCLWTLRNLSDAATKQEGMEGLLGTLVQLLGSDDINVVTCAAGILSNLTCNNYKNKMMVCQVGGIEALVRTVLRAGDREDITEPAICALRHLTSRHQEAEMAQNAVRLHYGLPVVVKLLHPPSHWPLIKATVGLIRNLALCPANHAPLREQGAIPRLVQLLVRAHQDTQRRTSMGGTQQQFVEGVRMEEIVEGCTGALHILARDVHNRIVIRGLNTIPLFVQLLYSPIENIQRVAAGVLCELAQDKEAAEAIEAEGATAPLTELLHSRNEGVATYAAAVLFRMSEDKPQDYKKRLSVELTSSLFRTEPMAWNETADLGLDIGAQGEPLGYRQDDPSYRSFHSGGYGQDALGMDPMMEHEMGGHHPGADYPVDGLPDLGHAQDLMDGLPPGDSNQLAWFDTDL
UniProt O43524: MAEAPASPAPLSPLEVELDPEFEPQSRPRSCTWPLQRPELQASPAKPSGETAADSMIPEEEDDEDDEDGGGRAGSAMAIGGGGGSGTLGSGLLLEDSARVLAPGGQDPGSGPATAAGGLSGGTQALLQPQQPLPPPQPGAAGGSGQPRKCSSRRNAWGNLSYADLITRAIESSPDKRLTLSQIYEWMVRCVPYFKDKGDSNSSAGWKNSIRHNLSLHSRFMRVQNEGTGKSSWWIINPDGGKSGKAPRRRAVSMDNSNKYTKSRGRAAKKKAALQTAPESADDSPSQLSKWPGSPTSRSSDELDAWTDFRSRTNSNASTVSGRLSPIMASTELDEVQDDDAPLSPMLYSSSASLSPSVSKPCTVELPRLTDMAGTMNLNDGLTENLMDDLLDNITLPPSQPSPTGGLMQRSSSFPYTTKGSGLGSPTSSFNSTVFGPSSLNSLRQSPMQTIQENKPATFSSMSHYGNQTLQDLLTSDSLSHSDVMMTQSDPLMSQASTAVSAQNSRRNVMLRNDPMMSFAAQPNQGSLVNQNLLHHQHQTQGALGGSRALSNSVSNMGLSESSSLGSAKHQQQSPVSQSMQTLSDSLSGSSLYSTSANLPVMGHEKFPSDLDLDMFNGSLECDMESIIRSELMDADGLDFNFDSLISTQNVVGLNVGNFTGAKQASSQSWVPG

Results are given in words; binding and its absence hold for the method and conditions named. Binding seen in cells or lysates may run through a third protein. Some binding calls cover weakened binding; strength is not graded here.

Experiment [1] concerns the target β-catenin-4A mutant (S33/S37/T41/S45) (UniProt P35222). Description: co-IP; nuclear fraction of HK-2 cells transfected with β-catenin-4A mutant plasmid, treated with LPS (100 ng/µl) for 30 min; immunoprecipitated with anti-β-catenin antibody at 4 °C overnight, magnetic protein A/G beads; immunoblot for FOXO3. On the technique in general: Immunoblotting shows a protein as a band on a membrane.

Experiment [2] shares this target. Description: co-IP; nuclear fraction of HK-2 cells transfected with β-catenin-4A mutant plasmid, untreated (without LPS); immunoprecipitated with anti-β-catenin antibody at 4 °C overnight, magnetic protein A/G beads; immunoblot for FOXO3.

For “Forkhead box O3 (FOXO3) (from UniProt O43524 1-673)”, the figures for the binding entry in experiment [1] and in experiment [2] were “binds” and “no binding (condition: untreated cells (without LPS))”, respectively.
